Assay results as given in ChEMBL document CHEMBL5252550, “DYRK1A kinase inhibition with emphasis on neurodegeneration: A comprehensive evolution story-cum-perspective” (Eur J Med Chem, 2018).

Amino acid sequences for entries named in this document (tags omitted).
UniProt Q9Y463, whole entry: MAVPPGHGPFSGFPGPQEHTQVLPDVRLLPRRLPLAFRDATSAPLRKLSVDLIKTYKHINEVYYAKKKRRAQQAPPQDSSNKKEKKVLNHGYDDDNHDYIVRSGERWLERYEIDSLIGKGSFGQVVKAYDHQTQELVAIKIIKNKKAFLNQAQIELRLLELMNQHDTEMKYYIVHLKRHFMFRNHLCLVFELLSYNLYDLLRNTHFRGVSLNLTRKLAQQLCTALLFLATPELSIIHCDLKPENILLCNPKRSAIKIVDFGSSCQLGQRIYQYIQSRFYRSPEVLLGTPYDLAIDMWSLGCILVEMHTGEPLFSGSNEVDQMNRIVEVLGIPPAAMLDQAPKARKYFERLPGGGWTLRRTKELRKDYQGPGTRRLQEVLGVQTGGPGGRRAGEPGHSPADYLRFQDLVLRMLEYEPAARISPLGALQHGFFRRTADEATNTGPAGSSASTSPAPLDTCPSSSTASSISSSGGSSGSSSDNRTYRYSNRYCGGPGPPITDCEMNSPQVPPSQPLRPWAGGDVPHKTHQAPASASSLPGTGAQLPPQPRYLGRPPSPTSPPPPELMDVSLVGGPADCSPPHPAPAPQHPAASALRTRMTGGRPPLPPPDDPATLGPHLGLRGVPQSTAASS

Biological target: Dual specificity tyrosine-phosphorylation-regulated kinase 1B (Homo sapiens, UniProt Q9Y463)
Experiment: Inhibition of DYRK1B (unknown origin)

For `COc1cc(N2CCN(C)CC2)ccc1Nc1nccc(-c2cn(C)c3cnccc23)n1`, the IC50 was 17 nM.
